Laboratory results: PubChem BioAssay AID1259254 (NCATS, 2017)
This is a random part of about 59,000 reagents tested. About 1,550 of them (2.6%) were called active. 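G2 share is only a proxy for re-replication; each gene was hit by three separate siRNAs, and active genes were retested.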 A number with no mark means an inactive call. Reagents against one gene are numbered here. Further read-outs or replicates are left out here. Not stated in the record: the amount of reagent.

Screen: 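Finding genes that stop cells copying their DNA twice in one cycle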 (primary screen)
Cell system: human HCT116 colorectal cancer cells
Knock-down reagent: single siRNA against human genes
Timing: 3 days
Read-out: 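Imaged Hoechst DNA stain sorts each cell into a cycle phase by DNA amount; per plate, G2 fraction set to 0% for non-targeting and 100% for GMNN siRNA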
Direction: G2 robust z-score: higher = more G2 cells, more excess DNA replication
Rule for the call: 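Active siRNAs have a G2 robust z of 5 or more median absolute deviations over the median, which in these data means about 38% or higher of GMNN control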

no.	gene	reagent	G2 robust z-score
1	CFAP100	1	-0.656
2	CFAP100	2	1.32
3	CFAP100	3	0.287
4	SH3BP2	1	-0.619
5	SH3BP2	2	-0.576
6	SH3BP2	3	-0.866
7	CTSA	1	0.325
8	CTSA	2	-0.509
9	CTSA	3	0.406
10	SULT1A1	1	-0.357
11	SULT1A1	2	-0.113
12	SULT1A1	3	1.01
13	GPR63	1	-0.669
14	GPR63	2	-0.0221
15	GPR63	3	-0.527
16	SCAMP2	1	-0.742
17	SCAMP2	2	-0.379
18	SCAMP2	3	-0.926
19	SMG6	1	-1.67
20	SMG6	2	-0.735
21	SMG6	3	3.56
22	RSPH10B	1	-0.548
23	RSPH10B	2	-0.446
24	RSPH10B	3	0.622
25	NPIPA1	1	1.12
26	NPIPA1	2	0.38
27	NPIPA1	3	1.07
28	FOXL2	1	-1.59
29	FOXL2	2	-0.567
30	FOXL2	3	0.779
31	NUCLEOLIN	1	-0.567
32	NUCLEOLIN	2	-0.981
33	NUCLEOLIN	3	2.26
34	RER1	1	4.05
35	RER1	2	1.33
36	RER1	3	0.411
37	DPY19L2	1	0.325
38	DPY19L2	2	-0.156
39	DPY19L2	3	-0.7
40	PLA2G2F	1	1.26
41	PLA2G2F	2	-0.0263
42	PLA2G2F	3	-0.943
43	SF3B2	1	0.994
44	SF3B2	2	1.34
45	SF3B2	3	0.294
46	RRP8	1	-0.115
47	RRP8	2	1.14
48	RRP8	3	-0.0845
49	PRDX2	1	-0.737
50	PRDX2	2	-0.987
51	PRDX2	3	-1.14
52	ADAT1	1	2.12
53	ADAT1	2	0.00272
54	ADAT1	3	-1.16
55	KDM6A	1	-0.204
56	KDM6A	2	-0.612
57	KDM6A	3	-0.357
58	BNIPL	1	-0.449
59	BNIPL	2	-0.274
60	BNIPL	3	-0.569
61	B3GALT1	1	2.67
62	B3GALT1	2	-0.98
63	B3GALT1	3	-0.565
64	MOXD1	1	-0.944
65	MOXD1	2	4.45
66	MOXD1	3	-0.76
67	DEFB121	1	0.384
68	DEFB121	2	-0.643
69	DEFB121	3	0.243

Entries above whose gene name begins with D or d:
gene	reagent	G2 robust z-score
DPY19L2	1	0.325
DPY19L2	2	-0.156
DPY19L2	3	-0.7
DEFB121	1	0.384
DEFB121	2	-0.643
DEFB121	3	0.243
